Measurements as given in patent publication US20020058275A1, “Compositions, kits, and methods for effecting adenine nucleotide modulation of DNA mismatch recognition proteins” (Thomas Jefferson University, priority 1997, published 2002).
No constants are given. Whether binding was seen depends on the method and setting. In cells and extracts the contact can be indirect. Some results given as binding are weak or reduced against the parent protein; the word gives no strength.

The chains behind the UniProt entries cited, without tags or fusion partners. Residues count along the entry.
GST-hMSH2 fusion protein comprising hMSH2 amino acid residues 751-934 (P43246, residues 751-934): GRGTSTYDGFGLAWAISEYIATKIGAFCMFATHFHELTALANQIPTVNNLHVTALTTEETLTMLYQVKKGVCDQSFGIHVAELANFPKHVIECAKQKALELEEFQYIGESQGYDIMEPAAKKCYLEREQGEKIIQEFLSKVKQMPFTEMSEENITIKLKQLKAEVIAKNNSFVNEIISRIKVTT
wild type hMSH2 IVTT fragment comprising only the carboxy-terminal interaction region (P43246, residues 875-934): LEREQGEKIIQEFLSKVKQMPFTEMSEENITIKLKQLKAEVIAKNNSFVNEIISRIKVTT

Target: GST-hMSH2 fusion protein comprising hMSH2 amino acid residues 751-934 (human) (UniProt P43246)
Assay: GST pull-down with GST-hMSH2 (751-934)

Question: For “wild type hMSH2 IVTT fragment comprising only the carboxy-terminal interaction region (from UniProt P43246 875-934)”, which binding is on record?
Answer: binds
